Results taken from PubChem BioAssay AID1347076 (National Center for Advancing Translational Sciences (NCATS), 2019).
The campaign covered roughly 400,000 compounds. About 13,000 (3.2%) were called active. Inconclusive results, whose numbers are uncertain, are shown with a selection of clear calls. The call rests on the fitted dose curve; in most records, active means well fitted cell-killing curve with a large enough effect; inconclusive means small, poorly fitted or top-dose-only effect, or effect the other way; inactive means flat fitted curve, though single readings scatter. Where the call is inconclusive, the potency comes from a doubtful curve fit.

test: qHTS assay for MDR1-selective chemotherapeutics: Primary screen using the drug-selected MDR subline cells KB-V1; details: KB-V1 MDR cells viability, CellTiter-Glo, 72 h; activity change, negative = cytotoxicity: at 46.1 µM (top of the series); further: nearly all actives have a fitted effect of over 60% in size
Procedure, shortened: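 Readout: CellTiter-Glo luminescence, 10 min after addition. Cells: KB-V1 MDR subline, 72 h at 37 degrees C with compound. Analysis: corrected, normalized data fitted to concentration-effect curves.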
On the % scale 0 is the no-effect control and ±100 the full control effect; potency means the concentration at half of the fitted maximal effect.

| Compound | activity change, negative = cytotoxicity | Potency |
| --- | --- | --- |
| CCOC(=O)C1(CCCc2ccccc2)CCN(C2CCSCC2)CC1 | inactive: -10.8% | – |
| O=C1C2C(c3ccccc3)C=CC(c3ccccc3)C2C(=O)N1c1ccccn1 (stereo not drawn) | inactive: 19.7% | – |
| CCOC(=O)C1(CCOc2ccccc2)CCN(Cc2ccc(O)c(OCC)c2)CC1 | – | inconclusive: 7.31 µM [cytotoxic, partial curve] |
| Cc1csc2nc(COc3ccc(NC(=O)COc4ccccc4F)cc3)cc(=O)n12 | inactive: 2.78% | – |
| O=C(c1cc([N+](=O)[O-])ccc1N1CCCCC1)N1CCCCC1 | – | active: 16.4 µM |
| Cc1c(Nc2nc(-c3ccc(Cl)cc3)cs2)c(=O)n(-c2ccccc2)n1C | – | active: 7.31 µM |
| COc1cccc2c(SCC(=O)N/N=C/c3ccc(O)c(O)c3)cc(C)nc12 | inactive: 2.81% | – |
| COc1cccc(-c2ccc(NC(=O)C3CCCN(Cc4cc(C)[nH]n4)C3)cc2)c1 (stereo not drawn) | – | inconclusive: 7.31 µM [cytotoxic, partial curve] |
| CC(=O)N=c1c(C#N)cc2c(=O)n3cccc(C)c3nc2n1Cc1ccco1 | – | inconclusive: 23.1 µM [cytotoxic, single point] |
| O=C(NC1CCCCCC1)c1ccc(S(=O)(=O)NCc2ccco2)cc1 | – | active: 20.6 µM |
| CCC(=O)N1c2ccccc2CC1C(=O)NCCN1CCN(c2cccc(C)c2C)CC1 (stereo not drawn) | inactive: 2.58% | – |
| Cc1ccc(-c2nc3ccccc3o2)cc1NC(=O)c1cccc2c(Cl)cccc12 | – | inconclusive: 11.6 µM [rising, partial curve, poor fit] |
| Fc1ccc(Oc2nc(-c3ccccn3)nc3ccccc23)cc1 | – | inconclusive: 16.4 µM [cytotoxic, single point] |
| O=C(COC(=O)c1cc(Br)ccc1O)NNC(=O)c1ccc(Cl)cc1 | inactive: 3.01% | – |
| COc1cc2nc(CN(C)Cc3ccc(F)cc3)[nH]c(=O)c2cc1OC | – | inconclusive: 5.8 µM [cytotoxic, full curve] |
| O=C1C2CC=C(Cl)CC2C(=O)N1CCCCCCN1C(=O)C2CC=C(Cl)CC2C1=O (stereo not drawn) | – | inconclusive: 11.6 µM [cytotoxic, partial curve] |
| CCC(CC)C(=O)Nc1ccc([N+](=O)[O-])cn1 | – | inconclusive: 16.4 µM [rising, single point] |
| O=[N+]([O-])c1cc(-c2nc(-c3ccccc3)no2)ccc1N1CCCC1 | inactive: 25.9% | – |
| CCN(CC)c1ccc(NC(=O)CN(C)Cc2cccs2)cc1 | – | inconclusive: 29.1 µM [cytotoxic, single point] |
| CC1=NC(=O)C(N=Nc2ccccc2)N1c1ccccc1 (stereo not drawn) | inactive: -15.2% | – |
| CCC1(c2ccccc2)NC(=O)N(CC(=O)Nc2cccnc2Cl)C1=O (stereo not drawn) | – | inconclusive: 0.0184 µM [cytotoxic, full curve] |
| COc1ccc2cc3c(N)nn(C(=O)c4ccc(F)cc4)c3nc2c1 | – | inconclusive: 18.4 µM [cytotoxic, partial curve] |
| O=C(C[C@H]1C/C=C\CC[C@H](Cc2ccc(F)cc2)C(=O)O[C@@H](c2ccccc2)CNC1=O)N[C@H](CO)Cc1ccccc1 | inactive: 10.1% | – |

Reprinted at random: 2 compounds from above, in no set order.

| Compound | activity change, negative = cytotoxicity | Potency |
| --- | --- | --- |
| O=C1C2C(c3ccccc3)C=CC(c3ccccc3)C2C(=O)N1c1ccccn1 (stereo not drawn) | inactive: 19.7% | – |
| CC1=NC(=O)C(N=Nc2ccccc2)N1c1ccccc1 (stereo not drawn) | inactive: -15.2% | – |

Additional entries

| Compound | activity change, negative = cytotoxicity | Potency |
| --- | --- | --- |
| Cc1ccc(-c2c(C(=O)N/N=C/c3ccoc3)nnn2-c2nonc2N)cc1 | – | inconclusive: 13 µM [rising, single point] |
| O=C(NC(=S)N1CCN(c2c(Cl)cccc2[N+](=O)[O-])CC1)c1cccs1 | – | inconclusive: 29.1 µM [cytotoxic, single point] |
| O=C(c1cccc(S(=O)(=O)N2CCOCC2)c1)N1CCCCCC1 | – | inconclusive: 14.6 µM [cytotoxic, partial curve, poor fit] |
| CC(=O)c1c(C)[nH]c(C(=O)OCC(=O)N(Cc2ccccc2)C(C)(C)C)c1C | inactive: -5.62% | – |
| COc1ccc(C(=O)Nc2nnc(SCC(=O)NCc3ccco3)s2)c(OC)c1 | inactive: -15% | – |
| CCOC(=O)N1CCN(S(=O)(=O)c2c(C)nc3scc(C)n3c2=O)CC1 | inactive: 22.9% | – |
| COc1cc(CNC(=O)CSCc2nc3cccnc3n2C2CCCCC2)cc(OC)c1OC | inactive: -31.7% | – |
| CC(Oc1cc(F)ccc1[N+](=O)[O-])C(=O)Nc1ccc(S(=O)(=O)N2CCCC2)cc1 (stereo not drawn) | – | inconclusive: 18.4 µM [cytotoxic, partial curve] |
| O=C(Nc1ccon1)c1ccc(Cl)c(S(=O)(=O)N2CCCCC2)c1 | – | inconclusive: 8.2 µM [cytotoxic, partial curve] |
| CCN(CC(=O)Nc1ccccc1C(F)(F)F)C(=O)c1ccc(N2CCCC2=O)cc1 | inactive: 0.634% | – |
| COc1ccc(CN(C(=O)c2snc(C(N)=O)c2N)C(C(=O)NC2CCCC2)c2ccco2)cc1 (stereo not drawn) | – | inconclusive: 4.11 µM [cytotoxic, full curve] |
| CC(C)=C1C2CCC1C1C(=O)N(c3ccc4c(c3)OCO4)C(=O)C21 (stereo not drawn) | – | inconclusive: 9.2 µM [cytotoxic, partial curve] |
| CN(C)CC1CC/C(=C\c2ccc(O)cc2)C1=O (stereo not drawn) | – | inconclusive: 20.6 µM [cytotoxic, partial curve, poor fit] |
| CC1(C)N(OCc2ccccc2)C(=O)C(=O)N(OCc2ccccc2)C1(C)C | – | inconclusive: 5.17 µM [cytotoxic, full curve] |
| CN(C)CCCn1c(SCC(=O)N2c3ccccc3Sc3ccccc32)nc2ccccc2c1=O | – | inconclusive: 20.6 µM [cytotoxic, single point] |
| COc1ccc(NC2CCCN(C(=O)c3ccccc3-c3ncc[nH]3)C2)cc1 (stereo not drawn) | inactive: 18.4% | – |
| O=C(OCc1cccc(C(F)(F)F)c1)c1cc([N+](=O)[O-])ccc1N1CCOCC1 | – | inconclusive: 7.31 µM [cytotoxic, partial curve] |
| COc1ccc(S(=O)(=O)N(C)c2ccc(C(=O)Nc3cccnc3)cc2)cc1 | – | inconclusive: 10.3 µM [cytotoxic, partial curve, poor fit] |
| CC1=C(O)C(=O)C(C2=C(O)C(=O)C(C)=C(O)C2=O)=C(O)C1=O | – | inconclusive: 16.4 µM [cytotoxic, single point] |
| C#CCOCCOCCOCCNc1nc(N2CCN(C(=O)Cn3cc(CCO)nn3)CC2)nc(N2CCN(C(=O)[C@H]([C@@H](C)CC)n3cc(CCCCN)nn3)CC2)n1 | – | inconclusive: 3.66 µM [rising, partial curve, poor fit] |
| CC(=NNC(=S)N1CCCCC1)c1cccc(C)n1 | – | inconclusive: 0.0073 µM [cytotoxic, full curve, poor fit] |
| CCCN1CCC(=O)N([C@H](CO)c2ccccc2)CC1 | – | inconclusive: 29.1 µM [rising, single point] |
| CC1CCN(C(=O)CSc2nc(-c3ccc(C(C)C)cc3)no2)CC1 | inactive: 6.95% | – |

| Compound | activity change, negative = cytotoxicity | Potency |
| --- | --- | --- |
| Cc1ccc(C(=O)Nc2ccc3c(c2)N(C)C(=O)c2ccccc2S3)cc1 | – | inconclusive: 4.61 µM [cytotoxic, full curve, poor fit] |
| CCc1ccc(NC(=O)c2cc(S(=O)(=O)N3CCCC3)ccc2F)cc1 | – | inconclusive: 23.1 µM [cytotoxic, single point] |
| O=C1c2cccc3cc([N+](=O)[O-])cc(c23)C(=O)N1CCN1CCCC1 | – | inconclusive: 5.17 µM [cytotoxic, full curve, poor fit] |
| COc1ccc(Cc2noc(CN3CCNC(=O)CC3)n2)cc1OC | inactive: 17.9% | – |
| COc1ccc(C(=O)C2CCN(S(=O)(=O)c3ccc4c(c3)OCCO4)CC2)cc1 | – | active: 23.1 µM |
| COc1ccc(Cc2c(C3CCCCC3)nc3c(Cl)cc(C(F)(F)F)cn23)c(C)c1 | inactive: -31.4% | – |
| CC1CCCCN1C(=O)Cn1c(=O)oc2cc(S(=O)(=O)N3CCCC3)ccc21 (stereo not drawn) | inactive: -22.2% | – |
| COc1ccc2oc(=O)c(-c3csc(Nc4cccc(O)c4)n3)cc2c1 | – | inconclusive: 29.1 µM [cytotoxic, single point] |
| COc1cc(C2C(C#N)=C(N)N(Nc3ccccc3)C3=C2C(=O)CC(C)(C)C3)ccc1OCc1cccc(F)c1 (stereo not drawn) | inactive: 0% | – |
| Cc1nc(SCC(=O)NC2CCCCC2C)c(C#N)c(C)c1C (stereo not drawn) | – | inconclusive: 23.1 µM [cytotoxic, partial curve, poor fit] |
| CC1(c2ccccc2Br)NC(=O)N(CC(=O)NC2CCCCC2)C1=O (stereo not drawn) | inactive: 0% | – |
| COc1ccc(-n2c(C)nc3sc4c(c3c2=O)CCC4)cc1 | – | inconclusive: 14.6 µM [cytotoxic, partial curve, poor fit] |
| Cc1ccc(-n2c3c(cc(C(=O)NC4CCSC4=O)c2=O)C(=O)CC(C)(C)C3)cc1 (stereo not drawn) | – | inconclusive: 23.1 µM [cytotoxic, partial curve, poor fit] |
| O=C(c1ccc2c(c1)N(Cc1ccc(F)cc1)CCS2)N1CCN(c2ccccc2)CC1 | – | inconclusive: 20.6 µM [cytotoxic, partial curve] |
| CCCc1ccc(OCC(=O)Nc2scc(-c3cccs3)c2C(=O)OC)cc1 | inactive: 6.2% | – |
| COc1ccc(C(CNC(=O)CN2C(=O)NC(C)(c3ccc4ccccc4c3)C2=O)N2CCCC2)cc1 (stereo not drawn) | inactive: 0% | – |
| CC(=O)OCc1c(-c2ccccc2)c2cc([N+](=O)[O-])ccc2n1C | – | inconclusive: 14.6 µM [cytotoxic, partial curve, poor fit] |
| CC(C)c1nc(C#N)c(NCCCn2ccnc2)o1 | – | inconclusive: 16.4 µM [rising, single point] |
| O=C(c1ccccc1)N1CCN(C(=O)c2ccncc2)CC1 | inactive: 8.24% | – |
| COc1ccc(C(=O)Nc2ccc(C(=O)OCC(=O)c3cccc4ccccc34)cc2)cc1 | inactive: 14.9% | – |
| CCCCCn1c(CN2CCN(Cc3ccccc3)CC2)nc2c1c(=O)n(C)c(=O)n2C | – | inconclusive: 23.1 µM [cytotoxic, single point] |
| COC(=O)c1ccc2nc(-c3ccccc3)c(Cc3cccc(F)c3)n2c1 | – | inconclusive: 16.4 µM [cytotoxic, single point] |
